In paper PMC8196013:
Where a chain is given by its changes, count along the chain named. No constants are given. Whether binding was seen depends on the method and setting. Binding seen in cells or lysates may run through a third protein. Some binding calls cover weakened binding; strength is not graded here. For part of these data: Sequences can lack the tags named with a protein.

The chains behind the UniProt entries cited, without tags or fusion partners.
UniProt P0A8T7: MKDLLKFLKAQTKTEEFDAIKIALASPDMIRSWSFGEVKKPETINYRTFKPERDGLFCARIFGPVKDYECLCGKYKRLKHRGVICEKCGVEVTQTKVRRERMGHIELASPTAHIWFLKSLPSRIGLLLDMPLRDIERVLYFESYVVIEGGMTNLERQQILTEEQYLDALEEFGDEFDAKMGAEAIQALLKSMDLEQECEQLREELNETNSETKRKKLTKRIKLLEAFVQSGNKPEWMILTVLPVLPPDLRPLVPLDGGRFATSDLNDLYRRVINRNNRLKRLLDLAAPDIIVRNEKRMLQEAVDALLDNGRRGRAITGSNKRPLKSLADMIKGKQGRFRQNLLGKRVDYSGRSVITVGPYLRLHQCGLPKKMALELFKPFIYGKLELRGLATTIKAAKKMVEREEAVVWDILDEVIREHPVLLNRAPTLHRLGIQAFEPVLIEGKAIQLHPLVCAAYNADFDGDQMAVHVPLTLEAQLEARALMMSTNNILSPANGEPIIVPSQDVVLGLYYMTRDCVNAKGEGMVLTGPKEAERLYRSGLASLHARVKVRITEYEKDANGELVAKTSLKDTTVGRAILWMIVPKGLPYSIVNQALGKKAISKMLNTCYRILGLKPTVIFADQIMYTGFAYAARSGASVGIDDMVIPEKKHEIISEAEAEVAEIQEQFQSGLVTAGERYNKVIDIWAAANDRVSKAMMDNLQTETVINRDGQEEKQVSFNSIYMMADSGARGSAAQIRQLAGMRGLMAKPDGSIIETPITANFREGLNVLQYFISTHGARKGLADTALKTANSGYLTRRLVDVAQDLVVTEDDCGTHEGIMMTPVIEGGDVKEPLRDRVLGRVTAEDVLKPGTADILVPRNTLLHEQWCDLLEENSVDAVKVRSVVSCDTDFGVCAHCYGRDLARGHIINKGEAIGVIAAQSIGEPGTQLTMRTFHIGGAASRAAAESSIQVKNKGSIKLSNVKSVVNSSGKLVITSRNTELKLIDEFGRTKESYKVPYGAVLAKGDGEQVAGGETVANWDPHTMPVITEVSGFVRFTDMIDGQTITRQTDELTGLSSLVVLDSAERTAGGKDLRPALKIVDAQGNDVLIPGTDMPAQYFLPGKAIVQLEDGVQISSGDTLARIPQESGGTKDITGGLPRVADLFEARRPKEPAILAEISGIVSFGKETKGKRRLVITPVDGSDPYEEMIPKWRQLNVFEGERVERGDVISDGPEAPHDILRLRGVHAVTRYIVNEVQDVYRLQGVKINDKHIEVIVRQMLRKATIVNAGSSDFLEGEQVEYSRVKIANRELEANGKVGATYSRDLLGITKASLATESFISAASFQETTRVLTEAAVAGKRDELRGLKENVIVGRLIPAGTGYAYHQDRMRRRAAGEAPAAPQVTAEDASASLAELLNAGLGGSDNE
UniProt P0A8V2: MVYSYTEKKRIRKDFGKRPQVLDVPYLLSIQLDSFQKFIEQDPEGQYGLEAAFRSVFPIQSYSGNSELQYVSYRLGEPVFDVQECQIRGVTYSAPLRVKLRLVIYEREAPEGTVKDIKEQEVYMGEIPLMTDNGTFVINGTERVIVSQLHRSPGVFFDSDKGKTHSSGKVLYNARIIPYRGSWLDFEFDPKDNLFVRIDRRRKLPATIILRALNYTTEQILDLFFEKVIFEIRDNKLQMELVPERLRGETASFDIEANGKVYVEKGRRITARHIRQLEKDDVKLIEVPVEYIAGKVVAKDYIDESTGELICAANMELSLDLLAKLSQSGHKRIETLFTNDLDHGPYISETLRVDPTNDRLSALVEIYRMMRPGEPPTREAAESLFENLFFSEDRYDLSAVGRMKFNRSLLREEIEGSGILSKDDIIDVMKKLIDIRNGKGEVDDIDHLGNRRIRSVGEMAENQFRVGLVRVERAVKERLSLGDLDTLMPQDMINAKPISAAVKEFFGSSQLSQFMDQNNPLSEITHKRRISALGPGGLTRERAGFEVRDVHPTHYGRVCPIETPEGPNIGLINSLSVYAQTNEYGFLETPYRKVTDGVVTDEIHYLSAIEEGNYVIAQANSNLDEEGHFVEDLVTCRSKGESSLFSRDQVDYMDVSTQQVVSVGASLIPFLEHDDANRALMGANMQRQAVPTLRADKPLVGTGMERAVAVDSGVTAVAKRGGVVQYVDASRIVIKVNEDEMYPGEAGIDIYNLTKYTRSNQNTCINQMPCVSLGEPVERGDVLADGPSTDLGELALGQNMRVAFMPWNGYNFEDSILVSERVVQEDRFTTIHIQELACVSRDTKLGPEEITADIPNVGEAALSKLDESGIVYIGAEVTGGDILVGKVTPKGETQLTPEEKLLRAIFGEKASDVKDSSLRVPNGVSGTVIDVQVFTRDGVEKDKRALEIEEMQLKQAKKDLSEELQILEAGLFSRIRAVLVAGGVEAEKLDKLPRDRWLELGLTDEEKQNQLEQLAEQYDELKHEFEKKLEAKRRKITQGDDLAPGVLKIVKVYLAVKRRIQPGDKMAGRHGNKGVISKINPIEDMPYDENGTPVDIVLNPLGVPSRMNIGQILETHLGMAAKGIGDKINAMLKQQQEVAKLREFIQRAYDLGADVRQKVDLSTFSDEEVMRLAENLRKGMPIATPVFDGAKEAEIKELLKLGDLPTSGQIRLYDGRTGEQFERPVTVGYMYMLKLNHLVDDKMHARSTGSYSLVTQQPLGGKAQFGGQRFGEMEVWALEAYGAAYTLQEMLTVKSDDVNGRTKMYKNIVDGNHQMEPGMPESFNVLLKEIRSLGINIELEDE
UniProt P0A7Z4: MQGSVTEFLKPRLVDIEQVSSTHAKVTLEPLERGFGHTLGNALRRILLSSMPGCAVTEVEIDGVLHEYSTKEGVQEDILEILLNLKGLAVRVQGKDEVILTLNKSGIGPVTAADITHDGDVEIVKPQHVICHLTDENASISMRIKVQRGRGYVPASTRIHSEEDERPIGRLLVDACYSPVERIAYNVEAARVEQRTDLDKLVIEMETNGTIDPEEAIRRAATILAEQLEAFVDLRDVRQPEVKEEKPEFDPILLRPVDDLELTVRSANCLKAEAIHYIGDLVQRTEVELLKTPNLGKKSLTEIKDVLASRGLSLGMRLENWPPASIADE
UniProt P0AFG0: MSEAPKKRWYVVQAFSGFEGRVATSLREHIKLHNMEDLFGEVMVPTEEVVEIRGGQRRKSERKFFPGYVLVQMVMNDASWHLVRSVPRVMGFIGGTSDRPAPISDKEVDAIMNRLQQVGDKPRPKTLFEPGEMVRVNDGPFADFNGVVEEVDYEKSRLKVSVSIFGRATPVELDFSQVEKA

Key:
[1] = biological target: T1, DegQ (E. coli K12 (endogenous in the lysate)) (UniProt P39099); test: cross-linking; BS3 or DSSO (0.75 mM, 2 h on ice) in the single SEC fractions of E. coli K12 lysate, fractions pooled, LC-MS; PPIs at 1% heteromeric PPI-FDR
T1 sequence: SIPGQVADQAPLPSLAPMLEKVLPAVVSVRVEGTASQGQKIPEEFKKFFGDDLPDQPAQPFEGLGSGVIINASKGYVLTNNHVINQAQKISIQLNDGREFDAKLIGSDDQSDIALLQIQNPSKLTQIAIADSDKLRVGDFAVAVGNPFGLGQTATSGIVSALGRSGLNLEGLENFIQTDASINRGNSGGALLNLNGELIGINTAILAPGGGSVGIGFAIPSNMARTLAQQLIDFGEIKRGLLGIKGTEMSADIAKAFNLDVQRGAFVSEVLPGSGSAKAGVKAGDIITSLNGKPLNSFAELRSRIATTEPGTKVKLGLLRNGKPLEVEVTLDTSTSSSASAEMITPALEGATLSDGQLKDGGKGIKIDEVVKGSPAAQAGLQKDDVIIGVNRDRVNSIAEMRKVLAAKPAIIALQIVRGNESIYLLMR

[2] = biological target: T2, DegP (E. coli K12 (endogenous in the lysate)) (UniProt P0C0V0); test: as above
T2 sequence: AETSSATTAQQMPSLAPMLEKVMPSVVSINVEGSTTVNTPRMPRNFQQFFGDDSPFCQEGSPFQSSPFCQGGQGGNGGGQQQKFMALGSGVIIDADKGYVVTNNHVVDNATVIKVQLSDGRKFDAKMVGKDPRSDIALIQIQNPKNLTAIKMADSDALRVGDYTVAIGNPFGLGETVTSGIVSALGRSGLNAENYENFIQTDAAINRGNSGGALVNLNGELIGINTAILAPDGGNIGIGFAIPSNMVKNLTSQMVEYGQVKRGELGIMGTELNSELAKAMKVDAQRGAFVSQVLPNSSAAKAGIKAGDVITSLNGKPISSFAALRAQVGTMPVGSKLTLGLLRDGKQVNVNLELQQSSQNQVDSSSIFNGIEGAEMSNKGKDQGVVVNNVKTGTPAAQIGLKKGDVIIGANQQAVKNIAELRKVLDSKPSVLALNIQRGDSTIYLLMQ

[3] = biological target: rpoC (E. coli K12 (endogenous in the lysate)) (UniProt P0A8T7); test: cross-linking; sulfo-SDA (50-1000 µM, 2 h on ice, UV 365 nm) on the TEV eluates of the YacL-SPA, RpoB-SPA and NusG-SPA enrichments; LC-MS; 2% residue pair FDR, 5% PPI FDR
[4] = biological target: rpoC (E. coli K12 (endogenous in the lysate)) (UniProt P0A8T7); test: cross-linking; BS3 or DSSO (0.75 mM, 2 h on ice) in the single SEC fractions of E. coli K12 lysate, fractions pooled, LC-MS; PPIs at 1% heteromeric PPI-FDR
[5] = biological target: rpoB (E. coli K12 (endogenous in the lysate)) (UniProt P0A8V2); test: as above
[6] = biological target: T3, sucA (E. coli K12 (endogenous in the lysate)) (UniProt P0AFG3); test: as above
T3 sequence: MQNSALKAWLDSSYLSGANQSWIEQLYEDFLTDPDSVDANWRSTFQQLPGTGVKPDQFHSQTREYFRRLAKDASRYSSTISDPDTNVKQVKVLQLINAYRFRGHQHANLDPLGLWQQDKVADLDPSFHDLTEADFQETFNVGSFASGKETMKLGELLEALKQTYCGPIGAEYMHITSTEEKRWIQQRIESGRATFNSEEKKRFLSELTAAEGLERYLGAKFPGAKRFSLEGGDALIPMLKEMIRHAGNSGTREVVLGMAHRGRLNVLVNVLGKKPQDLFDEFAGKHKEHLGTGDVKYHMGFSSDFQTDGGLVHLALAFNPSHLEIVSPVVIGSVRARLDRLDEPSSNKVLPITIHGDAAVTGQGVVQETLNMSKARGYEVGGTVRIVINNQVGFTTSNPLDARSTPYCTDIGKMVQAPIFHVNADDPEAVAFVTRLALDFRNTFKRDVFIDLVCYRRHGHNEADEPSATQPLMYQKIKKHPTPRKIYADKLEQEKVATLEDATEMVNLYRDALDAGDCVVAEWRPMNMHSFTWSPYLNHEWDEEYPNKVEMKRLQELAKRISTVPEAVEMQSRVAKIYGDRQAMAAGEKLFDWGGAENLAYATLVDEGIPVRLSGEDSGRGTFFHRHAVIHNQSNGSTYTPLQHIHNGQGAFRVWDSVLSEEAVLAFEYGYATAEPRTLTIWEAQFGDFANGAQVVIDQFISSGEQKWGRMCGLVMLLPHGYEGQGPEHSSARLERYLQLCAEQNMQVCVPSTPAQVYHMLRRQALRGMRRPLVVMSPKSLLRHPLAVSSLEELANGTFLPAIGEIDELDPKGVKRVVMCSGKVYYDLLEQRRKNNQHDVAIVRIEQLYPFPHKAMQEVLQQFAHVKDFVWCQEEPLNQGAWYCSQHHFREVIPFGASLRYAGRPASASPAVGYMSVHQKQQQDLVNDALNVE

[7] = biological target: rpoA (E. coli K12 (endogenous in the lysate)) (UniProt P0A7Z4); test: cross-linking; sulfo-SDA (50-1000 µM, 2 h on ice, UV 365 nm) on the TEV eluates of the YacL-SPA, RpoB-SPA and NusG-SPA enrichments; LC-MS; 2% residue pair FDR, 5% PPI FDR
[8] = biological target: SPA-tagged RpoB (E. coli K12) (UniProt P0A8V2); test: cross-linking; TEV eluates of the SPA-tag pull-downs (YacL, NusG, RpoB) crosslinked with sulfo-SDA (50-1000 µM, 2 h on ice in the dark, UV 365 nm 15 s), LC-MS; 2% residue pair-level FDR and 5% PPI-level FDR
[9] = biological target: SPA-tagged NusG (E. coli K12) (UniProt P0AFG0); test: as above
[10] = biological target: NusG (E. coli K12 (endogenous in BW25113)) (UniProt P0AFG0); test: cross-linking; BS3 or DSSO (0.75 mM, 2 h on ice) in each of 44 SEC fractions of E. coli K12 BW25113 lysate, fractions pooled, digested, SCX and hSAX fractionation, LC-MS; PPIs at 1% heteromeric decoy-based PPI-FDR
[11] = biological target: beta' subunit of RNAP (E. coli K12 (endogenous in BW25113)) (UniProt P0A8T7); test: as above
[12] = biological target: beta subunit of RNAP (E. coli K12 (endogenous in BW25113)) (UniProt P0A8V2); test: as above
[13] = biological target: RpoB-SPA (E. coli K12) (UniProt P0A8V2); test: cross-linking; sulfo-SDA (50-1000 µM, 2 h on ice, UV 365 nm) on the TEV eluates of the YacL-SPA, RpoB-SPA and NusG-SPA enrichments; LC-MS; 2% residue pair FDR, 5% PPI FDR
[14] = biological target: rpoB (E. coli K12 (endogenous in the lysate)) (UniProt P0A8V2); test: as above
[15] = biological target: NusG (E. coli K12 (endogenous in BW25113)) (UniProt P0AFG0); test: cross-linking; TEV eluates of the SPA-tag pull-downs (YacL, NusG, RpoB) crosslinked with sulfo-SDA (50-1000 µM, 2 h on ice in the dark, UV 365 nm 15 s), LC-MS; 2% residue pair-level FDR and 5% PPI-level FDR

B1: panD (protein, UniProt P0A790 1-126)
chain: MIRTMLQGKLHRVKVTHADLHYEGSCAIDQDFLDAAGILENEAIDIWNVTNGKRFSTYAIAAERGSRIISVNGAAAHCASVGDIVIIASFVTMPDEEARTWRPNVAYFEGDNEMKRTAKAIPVQVA
Q: B1 was tested. Which binding [1] did it give?
A: binds

Q: What about the binding [2] of the same binder?
A: binds

B2: GreB (protein, UniProt P30128 1-158)
chain: MKTPLVTREGYEKLKQELNYLWREERPEVTKKVTWAASLGDRSENADYQYNKKRLREIDRRVRYLTKCLENLKIVDYSPQQEGKVFFGAWVEIENDDGVTHRFRIVGYDEIFGRKDYISIDSPMARALLKKEVGDLAVVNTPAGEASWYVNAIEYVKP
Q: With B2 as the binder, how does the binding [3] read?
A: binds

Q: What about the binding [4] of the same binder?
A: binds

Q: What about the binding [5] of the same binder?
A: binds

B3: sucB (protein, UniProt P0AFG6 1-405)
chain: MSSVDILVPDLPESVADATVATWHKKPGDAVVRDEVLVEIETDKVVLEVPASADGILDAVLEDEGTTVTSRQILGRLREGNSAGKETSAKSEEKASTPAQRQQASLEEQNNDALSPAIRRLLAEHNLDASAIKGTGVGGRLTREDVEKHLAKAPAKESAPAAAAPAAQPALAARSEKRVPMTRLRKRVAERLLEAKNSTAMLTTFNEVNMKPIMDLRKQYGEAFEKRHGIRLGFMSFYVKAVVEALKRYPEVNASIDGDDVVYHNYFDVSMAVSTPRGLVTPVLRDVDTLGMADIEKKIKELAVKGRDGKLTVEDLTGGNFTITNGGVFGSLMSTPIINPPQSAILGMHAIKDRPMAVNGQVEILPMMYLALSYDHRLIDGRESVGFLVTIKELLEDPTRLLLDV
Q: For B3, which binding [6] is on record?
A: binds

B4: nuoF (protein, UniProt P31979 1-445)
chain: MKNIIRTPETHPLTWRLRDDKQPVWLDEYRSKNGYEGARKALTGLSPDEIVNQVKDAGLKGRGGAGFSTGLKWSLMPKDESMNIRYLLCNADEMEPGTYKDRLLMEQLPHLLVEGMLISAFALKAYRGYIFLRGEYIEAAVNLRRAIAEATEAGLLGKNIMGTGFDFELFVHTGAGRYICGEETALINSLEGRRANPRSKPPFPATSGAWGKPTCVNNVETLCNVPAILANGVEWYQNISKSKDAGTKLMGFSGRVKNPGLWELPFGTTAREILEDYAGGMRDGLKFKAWQPGGAGTDFLTEAHLDLPMEFESIGKAGSRLGTALAMAVDHEINMVSLVRNLEEFFARESCGWCTPCRDGLPWSVKILRALERGEGQPGDIETLEQLCRFLGPGKTFCAHAPGAVEPLQSAIKYFREEFEAGIKQPFSNTHLINGIQPNLLKERW
Q: How did the binding [7] turn out when B4 was run?
A: binds

B5: YacL (protein, UniProt P0A8E5 1-120)
chain: MDYEFLRDITGVVKVRMSMGHEVVGHWFNEEVKENLALLDEVEQAAHALKGSERSWQRAGHEYTLWMDGEEVMVRANQLEFAGDEMEEGMNYYDEESLSLCGVEDFLQVVAAYRNFVQQK
Q: For B5, which binding [8] is on record?
A: binds

Q: And the binding [9]?
A: binds

Q: What about the binding [10] of the same binder?
A: binds

Q: What about the binding [11] of the same binder?
A: binds

Q: What about the binding [12] of the same binder?
A: binds

Q: What about the binding [13] of the same binder?
A: binds

Q: What about the binding [14] of the same binder?
A: binds

B6: SPA-tagged YacL (protein, UniProt P0A8E5 1-120)
chain: B5 chain with Q118L
Q: B6 was tested. Which binding [15] did it give?
A: binds
